We go through one molecule from patent US20180038860A1 (published 2018).

No constants are given. Whether binding was seen depends on the method and setting. Some binding calls cover weakened binding; strength is not graded here.

The target of assay [1] is T1, CCR4 on Tregs / T cells from patients with Pancreatic Cancer or Urinary Bladder Cancer (human) (UniProt P51679).
T1 sequence (looked up): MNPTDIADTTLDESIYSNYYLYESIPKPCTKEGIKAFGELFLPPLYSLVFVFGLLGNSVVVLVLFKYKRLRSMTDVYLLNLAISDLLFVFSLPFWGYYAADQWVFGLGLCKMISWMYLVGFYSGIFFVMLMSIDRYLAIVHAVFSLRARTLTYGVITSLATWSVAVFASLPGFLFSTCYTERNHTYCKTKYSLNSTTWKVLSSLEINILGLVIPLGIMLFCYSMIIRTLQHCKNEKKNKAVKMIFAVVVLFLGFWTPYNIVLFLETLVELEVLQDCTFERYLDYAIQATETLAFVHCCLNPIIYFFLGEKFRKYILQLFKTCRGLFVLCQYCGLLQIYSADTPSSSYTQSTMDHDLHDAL
Put plainly: flow cytometry, biotinylated chemokine on CCR4 expressing Tregs of PC and UBC patients. (Flow cytometry measures light scatter and fluorescence of single cells or particles in a stream.)

For assay [2], the target named is T1, CCR4 on Tregs / T cells from patients with Pancreatic Cancer or Urinary Bladder Cancer (human). Description: flow cytometry, 1 µM biotinylated chemokine detected with fluorophore-streptavidin, Tregs of a PC patient.

B1: biotinylated MDC (bMDC) (ligand, UniProt O00626 25-93, looked up)
chain: GPYGANMEDSVCCRDYVRYRLPLRVVKHFYWTSDSCPRPGVVLLTFRDKEICADPRVPWVKMILNKLSQ
modifications: biotinylated (site not stated in Example 2B)
Regarding B1, the binding result in assay [1] and in assay [2] was “binds” throughout.
